Earlier results in patent US4278797A, “Intermediates to phenylmorphans and method of preparation thereof” (priority 1980, dated 1981).

Settings: literature; cited from earlier work

Q: For `CN1CC[C@]23c4c5ccc(O)c4O[C@H]2[C@@H](O)C=C[C@H]3[C@H]1C5` [Morphine], which physical dependence capacity is on record?
A: causes severe physical dependence
